In this assay the target is T1, HOAP (Drosophila melanogaster) (UniProt Q95RV2).
T1 sequence: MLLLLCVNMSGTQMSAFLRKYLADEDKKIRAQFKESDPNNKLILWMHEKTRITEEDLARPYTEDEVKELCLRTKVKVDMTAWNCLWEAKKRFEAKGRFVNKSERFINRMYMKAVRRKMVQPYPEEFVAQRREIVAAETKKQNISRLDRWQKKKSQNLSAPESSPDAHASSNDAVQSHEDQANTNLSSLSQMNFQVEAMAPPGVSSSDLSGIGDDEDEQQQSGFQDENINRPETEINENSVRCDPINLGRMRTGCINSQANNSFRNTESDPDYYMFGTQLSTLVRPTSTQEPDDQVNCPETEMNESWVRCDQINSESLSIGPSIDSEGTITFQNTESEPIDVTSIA
The assay is described as follows: affinity purification with mass spectrometry; biochemical purification of HOAP-interacting proteins (the same purification as in ref. 6); peptides identified.

Protein sequences, listed by entry. Tags and fused reporters are not part of them.
UniProt E1JH25: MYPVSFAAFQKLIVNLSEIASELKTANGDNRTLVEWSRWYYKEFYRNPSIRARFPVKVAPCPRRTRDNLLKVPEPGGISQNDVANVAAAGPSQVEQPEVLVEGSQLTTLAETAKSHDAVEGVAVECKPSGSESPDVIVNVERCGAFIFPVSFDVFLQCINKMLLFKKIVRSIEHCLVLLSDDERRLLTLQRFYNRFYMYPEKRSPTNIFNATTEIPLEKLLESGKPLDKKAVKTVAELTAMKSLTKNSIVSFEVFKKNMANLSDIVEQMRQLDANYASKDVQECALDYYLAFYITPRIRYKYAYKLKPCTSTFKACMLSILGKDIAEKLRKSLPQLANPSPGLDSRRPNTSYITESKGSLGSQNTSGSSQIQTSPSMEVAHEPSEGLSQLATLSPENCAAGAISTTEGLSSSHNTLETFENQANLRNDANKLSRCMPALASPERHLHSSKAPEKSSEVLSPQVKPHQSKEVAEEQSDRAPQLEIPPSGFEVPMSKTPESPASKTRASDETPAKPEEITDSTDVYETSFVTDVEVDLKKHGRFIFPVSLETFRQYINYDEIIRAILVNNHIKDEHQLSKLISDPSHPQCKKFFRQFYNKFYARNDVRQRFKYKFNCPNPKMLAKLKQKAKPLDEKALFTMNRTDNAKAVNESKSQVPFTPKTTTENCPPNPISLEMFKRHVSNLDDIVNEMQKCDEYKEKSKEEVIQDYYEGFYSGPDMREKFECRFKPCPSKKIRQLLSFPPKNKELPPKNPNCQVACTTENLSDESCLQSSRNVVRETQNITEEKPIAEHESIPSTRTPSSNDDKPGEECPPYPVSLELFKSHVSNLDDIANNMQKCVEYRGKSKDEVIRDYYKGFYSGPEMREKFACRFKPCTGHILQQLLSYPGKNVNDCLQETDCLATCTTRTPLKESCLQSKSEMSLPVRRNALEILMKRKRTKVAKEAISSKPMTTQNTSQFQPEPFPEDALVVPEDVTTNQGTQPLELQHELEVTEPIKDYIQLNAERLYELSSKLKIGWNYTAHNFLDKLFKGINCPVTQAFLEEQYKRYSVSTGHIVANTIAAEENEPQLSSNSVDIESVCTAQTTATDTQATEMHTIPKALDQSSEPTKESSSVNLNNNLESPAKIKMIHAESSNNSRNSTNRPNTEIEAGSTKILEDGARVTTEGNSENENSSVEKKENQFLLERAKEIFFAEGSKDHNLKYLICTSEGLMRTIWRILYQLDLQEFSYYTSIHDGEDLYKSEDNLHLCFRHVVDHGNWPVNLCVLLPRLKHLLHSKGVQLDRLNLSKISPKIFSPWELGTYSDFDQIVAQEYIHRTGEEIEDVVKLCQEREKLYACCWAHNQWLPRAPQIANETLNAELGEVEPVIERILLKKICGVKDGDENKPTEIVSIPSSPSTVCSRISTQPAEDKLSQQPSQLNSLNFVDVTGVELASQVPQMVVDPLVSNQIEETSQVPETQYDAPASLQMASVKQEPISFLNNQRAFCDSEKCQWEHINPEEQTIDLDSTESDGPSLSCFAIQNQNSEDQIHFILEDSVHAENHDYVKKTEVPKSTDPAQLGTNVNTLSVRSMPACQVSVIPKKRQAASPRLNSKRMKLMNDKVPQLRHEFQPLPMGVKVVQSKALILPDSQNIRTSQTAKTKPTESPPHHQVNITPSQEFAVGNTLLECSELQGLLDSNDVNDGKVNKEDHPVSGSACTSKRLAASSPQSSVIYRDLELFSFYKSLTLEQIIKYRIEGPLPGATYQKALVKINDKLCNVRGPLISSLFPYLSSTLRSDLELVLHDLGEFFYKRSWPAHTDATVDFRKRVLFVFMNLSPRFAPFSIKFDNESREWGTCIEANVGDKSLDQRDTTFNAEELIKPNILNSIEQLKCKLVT

These are yes or no findings as the source states them, for the method shown. Binding seen in cells or lysates may run through a third protein. Here binding means that the protein was enriched with, or labelled near, the bait; the list need not be complete.

For “Tea (peptides encoded by the CG30007 locus, found in the HOAP purification) (from UniProt E1JH25 1-1876)”, the binding result is listed as “binds”.
